Source: the supplement of paper PMC3334620
In all, about 33,000 sequences were measured (“E-score (-0.5 to 0.5)”: median about -8e-05, highest 2% from about 0.23 on). Some of the results follow.

biological target: T1, Nrg2 (UniProt P38082); experiment: PBM E-score (8-mer binding enrichment) (E-score (-0.5 to 0.5)); higher = stronger / more preferred TF binding; details: protein concentration: 100 nM; construct: GST-full length
T1 sequence: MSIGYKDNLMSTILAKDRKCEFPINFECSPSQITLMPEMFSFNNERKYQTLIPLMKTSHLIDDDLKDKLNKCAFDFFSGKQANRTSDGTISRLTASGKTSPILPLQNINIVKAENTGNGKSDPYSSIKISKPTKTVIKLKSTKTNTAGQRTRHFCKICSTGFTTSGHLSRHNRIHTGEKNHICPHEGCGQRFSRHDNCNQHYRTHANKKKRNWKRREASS
Method in brief: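 GST-tagged yeast TFs (full-length or DNA-binding domain) were made by PURExpress in vitro transcription/translation and applied at about 100-200 nM to universal all-10-mer Agilent arrays. The arrays were made double-stranded by primer extension, on fresh or once-stripped slides. Bound protein was detected with fluorescent anti-GST, and scans were normalised with masliner. Each ungapped eight-base word, pooled with its reverse complement, received an E-score (modified Wilcoxon-Mann-Whitney statistic) from the Universal PBM Analysis Suite.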

Row | Sequence | PBM E-score
1 | ACAACCTC | -0.107
2 | ACCCGTAG | -0.177
3 | CGCTTATC | -0.0744
4 | ATCGCAAG | 0.129
5 | CAGGGGCG | 0.252
6 | CATTGCGG | 0.0322
7 | CTGTGTGA | 0.141
8 | AACGACCT | -0.00677
9 | GCGTGTGA | -0.0144
10 | TTCATGAA | 0.0894
11 | CAGCGCGA | 0.0812
12 | AGCGATCA | -0.156
13 | GGAGTAAC | -1e-05
14 | AGCATAGC | -0.0891
15 | GGTCTCTA | -0.00143
16 | CGCTACCG | -0.134
17 | GGTTGGTA | 0.0761
18 | GCATCCCA | -0.227
19 | AAAGCAGG | -0.0439
20 | TGCCGGCA | 0.00969
21 | CATGGGGG | -0.232
22 | GCCCCGAA | 0.21
23 | CAGCTCTA | -0.0327
24 | CTATGATA | 0.0584
25 | AAGTTCCG | 0.0754

Row | Sequence | PBM E-score
26 | GTGCAGGA | -0.0538
27 | AAAAATCG | -0.0261
28 | AAGCTCCT | -0.22
29 | AAACGGGA | 0.144
30 | ACTTCTTA | 0.0859
31 | TACTGAGA | -0.0209
32 | CAATTTCG | 0.0322
33 | ACTAATCA | 0.0989
34 | AATGGAAG | 0.0112
35 | CTGCCGAA | -0.21
36 | CACTACCC | 0.155
37 | ACGACATC | -0.0348
38 | ACTGGCGA | -0.101
39 | CCTGGAAG | -0.0758
40 | ACACCGAG | -0.0836
41 | CAGGATCG | -0.21
42 | ACTAGCGC | -0.0303
43 | CCCGGAAA | 0.129
44 | AAAGAGAG | -0.132
45 | CATAAGGA | -0.142
46 | AGTCATCC | -0.23
47 | GCGCGTAC | 0.158
48 | CAGCCCGG | -0.0609
49 | AGGCTCTA | -0.242
50 | CCCATCGG | -0.0792

Row | Sequence | PBM E-score
51 | ACTCTTGG | -0.173
52 | CTCCGACA | -0.135
53 | ATCGCTCC | -0.156
54 | TCAAGAGA | 0.0364
55 | TCATATCA | 0.0508
56 | CCATCCAC | 0.0309
57 | CCGCAACG | 0.0857
58 | ATTATCAA | 0.1
59 | AACTGATC | -0.0368
60 | ATAGGGTG | -0.0278
61 | GTTGGATA | -0.0617
62 | ACTATGAC | 0.00865
63 | ATTTGTCG | 0.187
64 | ACGAACTG | -0.0717
65 | AAATTACG | -0.0526
66 | AGGGATGC | -0.099
67 | ACGTAAGT | -0.229
68 | AAGCCTTG | -0.0475
69 | ACCTTGAA | 0.0775
70 | CCGGAGCC | -0.189
71 | ATACGATA | 0.0101
72 | GCCTGGCC | -0.078
73 | CCTATCCA | -0.149
74 | GACTATGC | -0.0495
75 | CCTCATGA | 0.107

Row | Sequence | PBM E-score
76 | TCACATCA | 0.152
77 | AGGGCTAT | -0.213
78 | ACCTAGTC | -0.129
79 | ATCCGTTG | 0.179
80 | TACACGAA | 0.18
81 | GACCACCC | -0.152
82 | ATGGATGA | 0.0292
83 | CAAGAGGG | -0.0388
84 | CGGGAGAA | -0.0749
85 | AGGAGTTA | 0.0585
86 | TACGGGAA | -0.0757
87 | ACCACCCG | -0.154
88 | AACGTATG | -0.0217
89 | CAATGTAA | 0.0359
90 | CAAGTGAG | 0.0108
91 | AATAGAGT | -0.201
92 | TAAAACGA | -0.173
93 | ACAACCAG | 0.101
94 | ATGTACCC | 0.0315
95 | AGCAGGGA | 0.0712
96 | AAAACCGA | 0.0792
97 | GAACGACC | -0.211
98 | CCTGAAGA | 0.122
99 | TCATGACA | 0.177
100 | ATTAATCA | 0.171

Copied from above, nos. 59–96
Row | Sequence | PBM E-score
59 | AACTGATC | -0.0368
60 | ATAGGGTG | -0.0278
61 | GTTGGATA | -0.0617
62 | ACTATGAC | 0.00865
63 | ATTTGTCG | 0.187
64 | ACGAACTG | -0.0717
65 | AAATTACG | -0.0526
66 | AGGGATGC | -0.099
67 | ACGTAAGT | -0.229
68 | AAGCCTTG | -0.0475
69 | ACCTTGAA | 0.0775
70 | CCGGAGCC | -0.189
71 | ATACGATA | 0.0101
72 | GCCTGGCC | -0.078
73 | CCTATCCA | -0.149
74 | GACTATGC | -0.0495
75 | CCTCATGA | 0.107
76 | TCACATCA | 0.152
77 | AGGGCTAT | -0.213
78 | ACCTAGTC | -0.129
79 | ATCCGTTG | 0.179
80 | TACACGAA | 0.18
81 | GACCACCC | -0.152
82 | ATGGATGA | 0.0292
83 | CAAGAGGG | -0.0388
84 | CGGGAGAA | -0.0749
85 | AGGAGTTA | 0.0585
86 | TACGGGAA | -0.0757
87 | ACCACCCG | -0.154
88 | AACGTATG | -0.0217
89 | CAATGTAA | 0.0359
90 | CAAGTGAG | 0.0108
91 | AATAGAGT | -0.201
92 | TAAAACGA | -0.173
93 | ACAACCAG | 0.101
94 | ATGTACCC | 0.0315
95 | AGCAGGGA | 0.0712
96 | AAAACCGA | 0.0792

Additional results.

Row | Sequence | PBM E-score
101 | TCCCGTCA | -0.058
102 | CGCGATGA | 0.213
103 | AATGTCTG | 0.0226
104 | AATCGAGG | 0.248
105 | CTCCACAG | -0.227
106 | CAGCAGAA | 0.0568
107 | CCTGCGAA | -0.0333
108 | GCGTCGAA | 0.163
109 | CCCATCCC | -0.0779
110 | CTAACTAG | 0.115
111 | AACATGAG | -0.163
112 | ATGGCAAA | -0.0052
113 | AAACATCC | 0.0804
114 | CTACACGA | 0.111
115 | AATGTATC | 0.125
116 | CGCATGAA | 0.0505
117 | AGAAGAAC | -0.0494
118 | AGGCACAT | 0.121
119 | CACACACA | 0.0943
120 | ATGTAGCG | -0.0885
121 | ACCTCTCG | -0.0649
122 | AGGCAGTG | 0.0683
123 | ATAGAGGA | -0.141
124 | GAGATCCC | 0.164
125 | ACCGGCCA | -0.214

Row | Sequence | PBM E-score
126 | AGGCCGCC | -0.0684
127 | ACCTCAGA | -0.197
128 | GAGATAAA | 0.138
129 | AATGGATC | 0.121
130 | AGTCACAT | -0.181
131 | TGTGGTAA | -0.0785
132 | CGTTAAGA | -0.017
133 | TAATCGGA | 0.128
134 | ATCCTCGA | 0.198
135 | CTCACAAC | 0.206
136 | AACCGGAC | -0.0624
137 | ACGGAAAA | 0.0488
138 | CGCGAGAG | 0.0631
139 | ATGGTCAC | 0.103
140 | ATCCCAGA | -0.161
141 | CCAAAACA | -0.0279
142 | TCTATGAA | -0.0279
143 | CCACAGAG | 0.125
144 | GGCTGCAA | 0.0578
145 | ACCTGCCA | -0.134
146 | TGCTTCAA | -0.0671
147 | ACATTCCA | -0.0578
148 | AAGATGGG | -0.0491
149 | CGTTCTAA | 0.00602
150 | TCACCCAA | 0.054

Row | Sequence | PBM E-score
151 | GCCGTCGA | 0.0849
152 | ATTGCCGC | -0.0316
153 | ATGGAGGG | -0.254
154 | GGCTCCCA | -0.238
155 | CAACCACC | 0.0494
156 | AGTCCATG | -0.0354
157 | GCTGATCC | 0.0877
158 | ACCTGAAC | -0.159
159 | AGAATAAC | -0.127
160 | AAAATATC | 0.098
161 | CGGTACAA | 0.0143
162 | AGAAGCCT | 0.0897
163 | CGGCCCGC | -0.0324
164 | CGGTAGAG | -0.151
165 | AGGCTGGC | -0.227
166 | AGGCCTTG | -0.252
167 | AAACAACG | 0.0386
168 | GAGGTCGA | 0.0639
169 | GTGGATAA | 0.0278
170 | AACAACCT | -0.0786
171 | AGGGTATC | 0.169
172 | AACACGTC | -0.188
